Assay results taken from PubChem BioAssay (NCATS).
The shares of active, inactive and inconclusive entries below differ from those in the screen. For part of these data: Potencies of inconclusive entries are doubtful fits and often do not repeat. Activity calls are given as the source filed them. Calls come from the whole dose curve; as a rule, active = well fitted curve in the direction sought with a large enough effect; inconclusive = small, poorly fitted or top-dose-only effect, or another doubt; inactive = no such curve, though single readings can be large; an effect the other way counts as inactive or inconclusive.

Key:
[1] = MultiTox-Fluor Cytotoxicity Assay - LYMP1-001 - Live Cells (AID 947)
[2] = MultiTox-Fluor Cytotoxicity Assay - LYMP1-003 - Dead Cells (AID 961); note: nearly all actives have a fitted effect of over 70% in size
In short: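 Dead-cell protease release, detected as bis-AAF-R110 fluorescence at 485/520 nm, was measured in LYMP1-003 cells after 16 h compound treatment at 37 C. AC50 values came from Hill-modeled qHTS curves normalized to DMSO (0%) and 15 uM tetraoctylammonium bromide (100%).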

[3] = Cell Viability - LYMP1-003 - Assay at 40 hr (AID 964); note: nearly all actives have a fitted effect of over 60% in size
In short: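 Human lymphoblastoid LYMP1-003 cells, 2500/well in complete medium, rested 5 hr at 37 C, then exposed to compounds for 40 hr at 37 C. Viability read as intracellular ATP by CellTiter-Glo luminescence; AC50 from Hill fits of concentration-response data.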

[4] = Cell Viability - LYMP2-004 (AID 966); conditions: LYMP2-004 lymphoblastoid cell viability, qHTS; activity change, negative = cytotoxicity: at 92.2 µM (top of the series); note: nearly all actives have a fitted effect of over 65% in size
In short: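 Human lymphoblastoid cells (2500/well) in complete medium were treated with compounds for 24 hr at 37 C, then intracellular ATP was measured by CellTiter-Glo luminescence. AC50 values came from Hill-equation fits of concentration-response data.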

[5] = Cell Viability - LYMP2-005 (AID 967)
In short: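 Human lymphoblastoid LYMP2-005 cells, 2,500 per well in complete medium, rested 5 h at 37C then compound-treated 24 h at 37C. Intracellular ATP read by CellTiter-Glo luminescence after 30 min at room temperature; AC50 from Hill-equation fits of concentration-response data.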

[6] = Cell Viability - LYMP2-009 (AID 968); note: nearly all actives have a fitted effect of over 55% in size
[7] = Cell Viability - LYMP2-011 (AID 969); conditions: LYMP2-011 lymphoblastoid cells viability; series mostly up to 92.2 µM; note: nearly all actives have a fitted effect of over 60% in size
In short: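 Human lymphoblastoid cells (2500/well) were plated in complete medium, preincubated 5 hr at 37 C, then exposed to compounds for 24 hr at 37 C. Intracellular ATP was read by CellTiter-Glo luminescence, and AC50 came from Hill-equation concentration-response fits.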

[8] = Cell Viability - LYMP2-013 (AID 970); conditions: LYMP2-013 lymphoblastoid cells viability; activity change, negative = cytotoxic: at 92.2 µM (top of the series); note: nearly all actives have a fitted effect of over 55% in size
In short: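 Human lymphoblastoid cells, 2500/well, were preincubated 5 hr at 37 C, then treated with compounds for 24 hr at 37 C in complete medium. Intracellular ATP was read by CellTiter-Glo luminescence; AC50 from Hill-equation fits of concentration-response data.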

[9] = Cell Viability - LYMP2-017 (AID 972); note: nearly all actives have a fitted effect of over 55% in size
In short: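 Human lymphoblastoid cells (2500/well) were seeded in complete medium, held 5 hr at 37 C, then exposed to compounds for 24 hr at 37 C. Intracellular ATP was read by CellTiter-Glo luminescence after 30 min at room temperature, with AC50 values from Hill-equation fits.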

[10] = Cell Viability - LYMP2-019 (AID 973); note: nearly all actives have a fitted effect of over 55% in size
In short: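 Human lymphoblastoid cells were seeded at 2500 cells/well, preincubated 5 hr at 37 C, then exposed to compounds for 24 hr at 37 C in complete medium. Intracellular ATP was measured by CellTiter-Glo luminescence; AC50 from Hill fits.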

[11] = Cell Viability - LYMP2-021 (AID 974)
In short: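 Human lymphoblastoid cells (2500/well) were preincubated 5 hr at 37 C, then exposed to compounds for 24 hr at 37 C in complete medium. Intracellular ATP was read by CellTiter-Glo luminescence; AC50 came from Hill-equation fits of concentration-response data.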

[12] = Cell Viability - LYMP2-023 (AID 975); note: nearly all actives have a fitted effect of over 55% in size
In short: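 Human lymphoblastoid cells (2500/well) were preincubated 5 hr at 37 C, then exposed to compounds for 24 hr at 37 C in complete medium. Cellular ATP was read by CellTiter-Glo luminescence, and AC50 came from Hill-equation fits.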

[13] = Cell Viability - LYMP2-025 (AID 976); conditions: LYMP2-025 lymphoblastoid cell viability; activity change, negative = cytotoxicity: at 92.2 µM (top of the series)
In short: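 Human lymphoblastoid LYMP2-025 cells (2500/well) were pre-incubated 5 hr at 37 C, then treated with compounds for 24 hr at 37 C in complete medium. Viability was read as intracellular ATP by CellTiter-Glo luminescence; AC50 from Hill fits.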

[14] = Cell Viability - LYMP2-002 (AID 977); conditions: LYMP2-002 lymphoblastoid cell viability, qHTS; activity change, negative = cytotoxic: at 92.2 µM (top of the series);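 note: compound exposure lasted 24 h at 37 °C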
In short: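 Human lymphoblastoid LYMP2-002 cells, 2500 per well, exposed to compounds for 24 h at 37 C in complete medium; viability read as intracellular ATP by CellTiter-Glo luminescence, AC50 from Hill fits.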

[15] = Cell Viability - LYMP2-006 (AID 978); note: nearly all actives have a fitted effect of over 60% in size
In short: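 Human lymphoblastoid cells (LYMP2-006), 2500/well in complete medium, were treated with compound for 24 hr at 37 C. Cellular ATP was read by CellTiter-Glo luminescence after 30 min, and AC50 values came from Hill-equation fits of concentration-response data.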

[16] = Cell Viability - LYMP2-007 (AID 979);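 note: cells exposed to compound for 24 h before reading; nearly all actives have a fitted effect of over 60% in size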
In short: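 Human lymphoblastoid cells (2500/well) were plated in complete medium, incubated 5 hr at 37 C, then exposed to compounds for 24 hr at 37 C. Intracellular ATP was read by CellTiter-Glo luminescence after 30 min at room temperature; AC50 from Hill fits.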

[17] = Cell Viability - LYMP2-008 (AID 980); note: nearly all actives have a fitted effect of over 60% in size
In short: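 Human lymphoblastoid cells (2500/well) were plated, held 5 hr at 37 C, then exposed to compounds for 24 hr at 37 C in complete medium. Intracellular ATP was read by CellTiter-Glo luminescence; AC50 from Hill-fitted concentration-response.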

[18] = Cell Viability - LYMP2-010 (AID 981); note: nearly all actives have a fitted effect of over 55% in size
In short: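 Human lymphoblastoid LYMP2-010 cells (2500/well) were preincubated 5 hr at 37 C, then exposed to compounds for 24 hr at 37 C in complete medium. Intracellular ATP was measured by CellTiter-Glo luminescence after 30 min at room temperature; AC50 from Hill-fitted concentration-response.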

[19] = Cell Viability - LYMP2-012 (AID 982)
[20] = Cell Viability - LYMP2-014 (AID 983); conditions: LYMP2-014 lymphoblastoid cells, viability qHTS; activity change, negative = cytotoxicity: at 92.2 µM (top of the series); note: nearly all actives have a fitted effect of over 50% in size
In short: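 Human lymphoblastoid cells (2500/well) were pre-incubated 5 hr at 37 C, then exposed to compounds in complete medium for 24 hr at 37 C. Intracellular ATP was read by CellTiter-Glo luminescence after 30 min at room temperature; AC50 from Hill fits.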

[21] = Cell Viability - LYMP2-016 (AID 984); conditions: LYMP2-016 lymphoblastoid cell viability, qHTS; activity change, negative = cytotoxicity: at 92.2 µM (top of the series); note: nearly all actives have a fitted effect of over 55% in size
In short: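 Human lymphoblastoid LYMP2-016 cells, 2500 per well, treated with compounds for 24 h at 37 C. Viability read as intracellular ATP by CellTiter-Glo luminescence after 30 min at room temperature; AC50 from Hill fits of concentration-response.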

Measured: Potency
Potency is the fitted concentration of half-maximal effect.

Oc1ccc(Cl)cc1Cc1cc(Cl)ccc1O
inconclusive: [1] 31.6 µM [cytotoxic, full curve] | [2] 63.1 µM [cytotoxic, single point] | [4] 31.6 µM [cytotoxic, partial curve] | [5] 39.8 µM [cytotoxic, partial curve, poor fit] | [6] 50.1 µM [cytotoxic, single point] | [7] 79.4 µM [cytotoxic, single point] | [8] 79.4 µM [cytotoxic, partial curve, poor fit] | [9] 39.8 µM [cytotoxic, partial curve] | [10] 39.8 µM [cytotoxic, partial curve] | [11] 39.8 µM [cytotoxic, partial curve] | [12] 50.1 µM [cytotoxic, partial curve] | [13] 50.1 µM [cytotoxic, partial curve] | [14] 12.6 µM [cytotoxic, full curve, poor fit] | [15] 25.1 µM [cytotoxic, full curve, poor fit] | [16] 39.8 µM [cytotoxic, partial curve, poor fit] | [17] 50.1 µM [cytotoxic, partial curve, poor fit] | [18] 39.8 µM [cytotoxic, partial curve] | [19] 39.8 µM [cytotoxic, partial curve] | [20] 50.1 µM [cytotoxic, partial curve, poor fit] | [21] 39.8 µM [cytotoxic, partial curve]
active: [3] 25.1 µM
